Values from PubChem BioAssay AID652259 (Drosophila RNAi Screening Center, 2013)

Aim: 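Knock-downs that push a Wingless-driven reporter up or down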 (primary screen)
System: Drosophila clone 8 imaginal disc epithelial cells
Reagent: long dsRNA against Drosophila genes
Conditions: pathway stimulated by co-transfected Wingless expression plasmid
Measurement: 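Firefly luciferase from a tcf-site Wingless reporter, measured alongside co-transfected Renilla luciferase that tracks transfection; pathway stimulated by a Wingless plasmid; the firefly-to-Renilla ratio is not deposited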
Direction: firefly reporter light: higher = more Wg reporter light, before normalisation; Renilla control light: higher = more transfected or surviving cells
Hit rule: 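Strong candidates differ from their plate mean by at least two out of four per-plate statistical tests; weak candidates meet just one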
Calls: active = candidate regulator (raises or lowers reporter); inactive = not a candidate
The screen tested about 22,000 reagents; below is a random part of those with a known target gene and a result. Of all reagents, 233 (1.1%) were called active. 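Light values are raw, unnormalised plate reads; the ratio scores behind the reporter calls were not deposited.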 Unmarked entries are inactive. The record does not give: the amount of reagent, the time to read-out, the dose of the treatment.

Against PolG1 [DRSC03621] the deposit lists firefly reporter light, replicate 1 = 3458; firefly reporter light, replicate 2 = 9384; Renilla control light, replicate 1 = 1540; Renilla control light, replicate 2 = 4426. Depletion of shrb [DRSC07061] gave: firefly reporter light, replicate 1 = 12058; Renilla control light, replicate 1 = 1625. Against Nost [DRSC18037], the values are firefly reporter light, replicate 1 = 20213; Renilla control light, replicate 1 = 8845. Against Nost [DRSC18338], the values are firefly reporter light, replicate 1 = 21888; Renilla control light, replicate 1 = 10240. With knock-down of CG13040 [DRSC09921], the record shows firefly reporter light, replicate 1 = 11531; Renilla control light, replicate 1 = 4549. After knock-down of ATPsynbetaL [DRSC10503] the results were firefly reporter light, replicate 1 = 6164; Renilla control light, replicate 1 = 2597.

For CG18808 [DRSC08539] the deposit lists firefly reporter light, replicate 1 = 1160; firefly reporter light, replicate 2 = 7432; Renilla control light, replicate 1 = 940; Renilla control light, replicate 2 = 3218. CG32054 [DRSC10684] gave firefly reporter light, replicate 1 = 5452; Renilla control light, replicate 1 = 3393. For CG12679 [DRSC20493] the deposit lists firefly reporter light, replicate 1 = 14864; Renilla control light, replicate 1 = 9105. For CG2533 [DRSC19855], the values are firefly reporter light, replicate 1 = 26325; Renilla control light, replicate 1 = 16048. Against Prx1 [DRSC10741] the deposit lists firefly reporter light, replicate 1 = 4352; Renilla control light, replicate 1 = 1989. After knock-down of ZnT41F [DRSC04850], the record shows firefly reporter light, replicate 1 = 11339; Renilla control light, replicate 1 = 3808.

For Kah [DRSC07887], the values are firefly reporter light, replicate 1 = 4697; Renilla control light, replicate 1 = 2625. With knock-down of Kah [DRSC08515] the results were firefly reporter light, replicate 1 = 10050; Renilla control light, replicate 1 = 5563. For Kr-h1 [DRSC00908], the entry reads firefly reporter light, replicate 1 = 13996; Renilla control light, replicate 1 = 5665. For Kr-h1 [DRSC03355] the deposit lists firefly reporter light, replicate 1 = 10996; Renilla control light, replicate 1 = 4073. Against PCNA [DRSC07653], the values are firefly reporter light, replicate 1 = 7318; Renilla control light, replicate 1 = 2668. Knock-down of CG31076 [DRSC16017] came out at: firefly reporter light, replicate 1 = 6432; Renilla control light, replicate 1 = 3056.

Knock-down of Eato [DRSC01891] came out at: firefly reporter light, replicate 1 = 18658; Renilla control light, replicate 1 = 7616. Silencing of Eato [DRSC03061] gave: firefly reporter light, replicate 1 = 2169; firefly reporter light, replicate 2 = 5429; Renilla control light, replicate 1 = 956; Renilla control light, replicate 2 = 2426. Depletion of PPO1 [DRSC05929] gave: firefly reporter light, replicate 1 = 16024; Renilla control light, replicate 1 = 2775. After knock-down of Jon65Aii [DRSC10665] the results were firefly reporter light, replicate 1 = 2265; firefly reporter light, replicate 2 = 8327; Renilla control light, replicate 1 = 1184; Renilla control light, replicate 2 = 3980. Knock-down of tj [DRSC02011] came out at: firefly reporter light, replicate 1 = 2524; firefly reporter light, replicate 2 = 4082; Renilla control light, replicate 1 = 738; Renilla control light, replicate 2 = 1946. CG1233 [DRSC08269] gave firefly reporter light, replicate 1 = 13072; Renilla control light, replicate 1 = 2362.

cmpy [DRSC11701] scored firefly reporter light, replicate 1 = 9367; Renilla control light, replicate 1 = 3910.
